Experimental findings from the supplement of paper PMC6411743 are described below.

Chains of the proteins cited; added tags and fusions are not shown. Lines headed by an entry give the natural chain unless they say otherwise; changes in a name come on top.
UniProt Q92785, whole entry: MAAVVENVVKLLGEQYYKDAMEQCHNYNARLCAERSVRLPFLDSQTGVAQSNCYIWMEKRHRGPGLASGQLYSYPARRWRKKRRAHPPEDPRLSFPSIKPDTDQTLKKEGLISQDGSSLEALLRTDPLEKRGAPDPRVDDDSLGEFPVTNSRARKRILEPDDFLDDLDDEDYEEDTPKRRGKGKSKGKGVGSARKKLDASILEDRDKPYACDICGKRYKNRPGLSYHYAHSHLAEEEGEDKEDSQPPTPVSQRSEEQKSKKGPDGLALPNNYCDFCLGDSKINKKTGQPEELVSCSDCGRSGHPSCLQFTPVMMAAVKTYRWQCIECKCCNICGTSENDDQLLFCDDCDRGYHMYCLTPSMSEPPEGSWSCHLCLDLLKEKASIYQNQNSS
UniProt Q8WVQ1: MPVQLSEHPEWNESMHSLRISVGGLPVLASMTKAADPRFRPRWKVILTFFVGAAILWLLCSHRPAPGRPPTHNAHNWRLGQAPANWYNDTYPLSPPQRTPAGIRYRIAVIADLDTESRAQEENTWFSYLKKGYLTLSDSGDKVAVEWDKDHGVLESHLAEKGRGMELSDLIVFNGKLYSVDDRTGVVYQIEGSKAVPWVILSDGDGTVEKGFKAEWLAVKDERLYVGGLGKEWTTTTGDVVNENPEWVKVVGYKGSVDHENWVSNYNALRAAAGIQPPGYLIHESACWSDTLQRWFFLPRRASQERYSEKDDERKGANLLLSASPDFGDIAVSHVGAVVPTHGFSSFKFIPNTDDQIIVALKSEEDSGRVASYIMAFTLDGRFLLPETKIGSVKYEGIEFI
UniProt Q8WY22: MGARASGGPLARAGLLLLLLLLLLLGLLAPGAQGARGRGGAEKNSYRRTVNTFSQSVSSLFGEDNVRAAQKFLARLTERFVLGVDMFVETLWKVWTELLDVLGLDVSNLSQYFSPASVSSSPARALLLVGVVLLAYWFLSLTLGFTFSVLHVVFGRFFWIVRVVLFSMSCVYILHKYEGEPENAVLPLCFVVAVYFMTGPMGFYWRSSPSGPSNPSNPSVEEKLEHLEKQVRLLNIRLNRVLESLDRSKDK
UniProt Q8NDX1: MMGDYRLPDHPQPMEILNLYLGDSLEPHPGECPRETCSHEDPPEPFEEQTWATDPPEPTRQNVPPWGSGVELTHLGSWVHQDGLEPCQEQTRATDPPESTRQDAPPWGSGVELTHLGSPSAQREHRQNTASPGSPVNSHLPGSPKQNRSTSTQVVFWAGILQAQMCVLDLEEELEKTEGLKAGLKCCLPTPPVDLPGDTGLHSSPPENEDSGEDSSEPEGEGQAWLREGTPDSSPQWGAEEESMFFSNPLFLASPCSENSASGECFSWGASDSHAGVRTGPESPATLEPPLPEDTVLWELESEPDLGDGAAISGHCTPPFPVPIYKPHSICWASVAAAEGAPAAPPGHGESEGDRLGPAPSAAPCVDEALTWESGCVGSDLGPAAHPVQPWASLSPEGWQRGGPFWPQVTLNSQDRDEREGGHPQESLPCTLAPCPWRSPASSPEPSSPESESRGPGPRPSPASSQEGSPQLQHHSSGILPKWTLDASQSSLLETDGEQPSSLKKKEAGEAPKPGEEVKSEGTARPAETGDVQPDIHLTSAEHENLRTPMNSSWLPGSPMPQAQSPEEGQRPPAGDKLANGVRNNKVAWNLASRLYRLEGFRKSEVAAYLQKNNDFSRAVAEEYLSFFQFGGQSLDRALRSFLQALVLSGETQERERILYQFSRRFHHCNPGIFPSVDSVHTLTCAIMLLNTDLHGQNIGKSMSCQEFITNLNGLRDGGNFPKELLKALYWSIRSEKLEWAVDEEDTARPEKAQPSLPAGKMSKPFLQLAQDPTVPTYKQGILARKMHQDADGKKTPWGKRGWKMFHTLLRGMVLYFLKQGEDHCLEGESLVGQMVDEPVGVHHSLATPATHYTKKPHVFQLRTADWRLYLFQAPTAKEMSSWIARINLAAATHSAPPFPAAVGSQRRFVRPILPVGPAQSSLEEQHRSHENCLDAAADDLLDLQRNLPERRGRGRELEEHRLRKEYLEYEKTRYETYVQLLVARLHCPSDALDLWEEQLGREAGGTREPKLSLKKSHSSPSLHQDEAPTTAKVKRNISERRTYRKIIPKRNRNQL
UniProt Q8WUW1: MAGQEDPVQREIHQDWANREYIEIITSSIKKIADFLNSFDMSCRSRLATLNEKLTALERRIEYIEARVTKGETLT
UniProt Q8NFG4: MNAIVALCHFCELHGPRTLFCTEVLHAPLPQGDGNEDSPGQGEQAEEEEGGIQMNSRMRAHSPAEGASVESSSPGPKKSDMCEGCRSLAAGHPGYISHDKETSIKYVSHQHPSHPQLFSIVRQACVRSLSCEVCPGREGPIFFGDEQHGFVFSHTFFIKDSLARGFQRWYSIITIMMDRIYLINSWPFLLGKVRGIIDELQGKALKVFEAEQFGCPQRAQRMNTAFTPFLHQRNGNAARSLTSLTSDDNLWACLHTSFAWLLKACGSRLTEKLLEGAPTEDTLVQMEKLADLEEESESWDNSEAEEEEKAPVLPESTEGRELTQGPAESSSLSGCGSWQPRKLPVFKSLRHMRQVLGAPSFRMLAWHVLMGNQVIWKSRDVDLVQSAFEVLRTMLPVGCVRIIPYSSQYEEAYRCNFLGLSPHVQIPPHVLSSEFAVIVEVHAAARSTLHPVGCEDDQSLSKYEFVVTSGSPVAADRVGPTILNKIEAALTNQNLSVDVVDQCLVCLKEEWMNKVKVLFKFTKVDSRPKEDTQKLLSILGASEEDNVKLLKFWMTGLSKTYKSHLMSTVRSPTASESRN
UniProt Q8WV92, whole entry: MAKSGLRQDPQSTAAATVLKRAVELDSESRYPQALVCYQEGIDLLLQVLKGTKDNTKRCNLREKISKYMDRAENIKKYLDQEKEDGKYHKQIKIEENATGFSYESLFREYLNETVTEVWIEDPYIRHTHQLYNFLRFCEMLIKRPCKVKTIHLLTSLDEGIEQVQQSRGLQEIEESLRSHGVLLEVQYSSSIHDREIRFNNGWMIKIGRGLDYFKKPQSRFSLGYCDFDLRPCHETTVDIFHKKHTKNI
UniProt Q8NFY9: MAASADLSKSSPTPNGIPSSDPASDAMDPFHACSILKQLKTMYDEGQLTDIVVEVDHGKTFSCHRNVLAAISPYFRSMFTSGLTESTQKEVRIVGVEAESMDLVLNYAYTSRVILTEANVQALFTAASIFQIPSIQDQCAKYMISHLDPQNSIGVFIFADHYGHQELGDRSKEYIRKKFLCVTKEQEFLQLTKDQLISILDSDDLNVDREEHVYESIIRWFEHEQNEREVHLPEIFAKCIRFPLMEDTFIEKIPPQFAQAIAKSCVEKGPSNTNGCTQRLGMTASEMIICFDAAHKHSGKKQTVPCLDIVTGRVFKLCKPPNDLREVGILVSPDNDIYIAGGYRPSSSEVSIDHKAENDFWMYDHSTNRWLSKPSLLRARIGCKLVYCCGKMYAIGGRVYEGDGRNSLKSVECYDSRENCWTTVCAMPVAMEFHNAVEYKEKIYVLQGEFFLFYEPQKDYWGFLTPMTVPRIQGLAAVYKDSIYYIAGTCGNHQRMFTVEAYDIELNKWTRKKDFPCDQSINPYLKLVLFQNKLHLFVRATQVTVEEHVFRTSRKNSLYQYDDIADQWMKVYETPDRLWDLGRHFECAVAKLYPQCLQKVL
UniProt Q92820: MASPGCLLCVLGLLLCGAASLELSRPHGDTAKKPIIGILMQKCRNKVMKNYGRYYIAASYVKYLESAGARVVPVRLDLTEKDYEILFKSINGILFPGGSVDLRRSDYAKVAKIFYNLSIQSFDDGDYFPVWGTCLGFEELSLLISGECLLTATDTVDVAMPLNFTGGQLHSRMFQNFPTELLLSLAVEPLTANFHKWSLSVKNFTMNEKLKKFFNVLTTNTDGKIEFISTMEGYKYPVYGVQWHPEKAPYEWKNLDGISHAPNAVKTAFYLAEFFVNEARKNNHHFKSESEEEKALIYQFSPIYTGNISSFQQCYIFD
UniProt Q8NFV4: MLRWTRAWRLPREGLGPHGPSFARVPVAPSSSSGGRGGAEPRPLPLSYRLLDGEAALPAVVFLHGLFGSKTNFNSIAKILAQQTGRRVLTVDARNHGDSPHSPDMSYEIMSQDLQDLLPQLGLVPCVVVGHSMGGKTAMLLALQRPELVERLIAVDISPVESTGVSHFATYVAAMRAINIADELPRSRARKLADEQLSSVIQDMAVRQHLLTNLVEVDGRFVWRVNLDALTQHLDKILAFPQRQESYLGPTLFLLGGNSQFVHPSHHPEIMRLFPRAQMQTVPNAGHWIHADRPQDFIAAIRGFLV
UniProt Q92520: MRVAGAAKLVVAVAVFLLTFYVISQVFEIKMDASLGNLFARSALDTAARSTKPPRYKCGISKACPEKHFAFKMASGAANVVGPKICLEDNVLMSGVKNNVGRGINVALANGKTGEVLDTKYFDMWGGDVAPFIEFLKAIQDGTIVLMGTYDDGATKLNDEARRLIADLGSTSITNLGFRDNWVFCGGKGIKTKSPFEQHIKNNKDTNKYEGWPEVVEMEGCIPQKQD
UniProt Q8WU10: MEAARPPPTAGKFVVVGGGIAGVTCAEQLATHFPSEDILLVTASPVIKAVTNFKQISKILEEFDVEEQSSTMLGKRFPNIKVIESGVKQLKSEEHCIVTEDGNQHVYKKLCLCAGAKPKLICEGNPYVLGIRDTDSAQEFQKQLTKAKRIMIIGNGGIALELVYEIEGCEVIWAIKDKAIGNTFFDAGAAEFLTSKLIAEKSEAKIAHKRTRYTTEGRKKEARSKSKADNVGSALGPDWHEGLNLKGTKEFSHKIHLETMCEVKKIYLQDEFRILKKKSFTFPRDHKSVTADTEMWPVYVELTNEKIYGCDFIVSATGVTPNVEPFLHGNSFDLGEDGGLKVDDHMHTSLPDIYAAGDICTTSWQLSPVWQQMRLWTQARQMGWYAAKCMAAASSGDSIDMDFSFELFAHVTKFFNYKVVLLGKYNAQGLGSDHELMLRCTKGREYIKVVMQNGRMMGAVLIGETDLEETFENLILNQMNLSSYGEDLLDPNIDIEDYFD
UniProt Q8TAF3: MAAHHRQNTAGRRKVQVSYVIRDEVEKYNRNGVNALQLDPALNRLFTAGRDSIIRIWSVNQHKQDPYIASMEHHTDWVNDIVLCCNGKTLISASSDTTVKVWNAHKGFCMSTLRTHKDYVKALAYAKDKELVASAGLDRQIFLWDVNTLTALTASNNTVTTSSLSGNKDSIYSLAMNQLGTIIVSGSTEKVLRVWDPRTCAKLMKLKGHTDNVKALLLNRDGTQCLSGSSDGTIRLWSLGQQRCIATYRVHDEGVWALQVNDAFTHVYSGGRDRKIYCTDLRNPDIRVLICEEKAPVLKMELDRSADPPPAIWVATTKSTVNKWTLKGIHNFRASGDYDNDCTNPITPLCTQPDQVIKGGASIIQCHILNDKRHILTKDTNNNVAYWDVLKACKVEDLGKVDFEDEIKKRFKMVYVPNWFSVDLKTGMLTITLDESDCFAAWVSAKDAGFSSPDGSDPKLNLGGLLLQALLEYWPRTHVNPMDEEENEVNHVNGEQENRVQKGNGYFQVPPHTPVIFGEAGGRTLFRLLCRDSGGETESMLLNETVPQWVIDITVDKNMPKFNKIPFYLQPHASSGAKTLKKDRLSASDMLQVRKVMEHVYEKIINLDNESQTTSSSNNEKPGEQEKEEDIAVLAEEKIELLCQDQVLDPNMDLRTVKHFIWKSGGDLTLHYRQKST
UniProt Q92930: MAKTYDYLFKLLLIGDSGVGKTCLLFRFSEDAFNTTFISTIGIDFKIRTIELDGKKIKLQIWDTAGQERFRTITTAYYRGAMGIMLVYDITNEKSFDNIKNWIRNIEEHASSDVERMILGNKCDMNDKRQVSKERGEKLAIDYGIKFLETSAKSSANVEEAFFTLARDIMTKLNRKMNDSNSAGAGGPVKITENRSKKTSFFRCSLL

± gives the standard deviation of the averaged measurements. Only a part is listed here, and it is no random draw. Small differences around the control level are noise.

Compound in this assay: Nc1ncnc2c1ncn2[C@@H]1O[C@H](COP(=O)(O)OP(=O)(O)NP(=O)(O)O)[C@@H](O)[C@H]1O [adenylyl imidodiphosphate]
The assay is described as follows: NP40-soluble protein abundance relative to vehicle (solubility fold change) (ratio); higher = more soluble protein in presence of AMP-PNP. To be noted: concentration: 0.5mM. The essentials:
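Each value is a fold change relative to the detergent-processed vehicle, calculated per replicate from vsn-normalised intensities. Jurkat crude lysate received eight concentrations (0.1 to 10 mM) for 10 min at room temperature and 3 min at 37 °C, then was solubilised in 0.8% NP40 with benzonase (60 min, 4 °C). The ultracentrifuged supernatant was TMT-labelled and run by LC-MS/MS in three independent experiments.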
Turning to PDCD6IP (UniProt Q8WUM4), the NP40-soluble protein abundance was determined as 1 ± 0.03.

Regarding UniProt Q92845 and related entries, the NP40-soluble protein abundance was 0.997 ± 0.033. Regarding UniProt Q8NEZ2 and related entries, the NP40-soluble protein abundance was found to be 0.979 ± 0.027. With UBASH3B (UniProt Q8TF42), the NP40-soluble protein abundance was found to be 0.98 ± 0.048. Turning to UniProt Q92616, the NP40-soluble protein abundance was found to be 1.04 ± 0.025. On to UniProt Q8TDY2 and related entries, for which the NP40-soluble protein abundance amounted to 1.02 ± 0.044. With UniProt Q8NDZ4 and related entries the figure was 0.997 ± 0.036; with BAP1 (UniProt Q92560), 1.02 ± 0.023; with UniProt Q8NDI1-2|Q8NDI1-3, 0.993 ± 0.027. The figure for UniProt Q92698 and related entries is 0.987 ± 0.053; for DPF2 (UniProt Q92785) it is 0.951 ± 0.047; for UniProt Q8WVQ1 and related entries it is 0.981 ± 0.012. Consider BRI3BP (UniProt Q8WY22), for which the NP40-soluble protein abundance came to 1.04 ± 0.034. In the case of UniProt Q8NDX1 and related entries, the NP40-soluble protein abundance was found to be 1.02 ± 0.063. With UniProt Q8WUW1 and related entries the figure was 0.965 ± 0.072. The figure for UniProt Q8TEP8-3 is 0.973 ± 0.03; for UniProt Q92581-2|Q92581-3|Q92581 it is 0.995 ± 0.017; for UniProt Q8NFG4 and related entries it is 1.01 ± 0.012. As to CNNM3 (UniProt Q8NE01), the NP40-soluble protein abundance came to 0.993 ± 0.045. Consider MITD1 (UniProt Q8WV92), for which the NP40-soluble protein abundance came to 1.035 ± 0.004. With KBTBD8 (UniProt Q8NFY9) the figure was 0.975 ± 0.056. The figure for UniProt Q8TEQ8 and related entries is 0.992 ± 0.028; for GGH (UniProt Q92820) it is 1.02 ± 0.059.

Turning to ABHD11 (UniProt Q8NFV4), the NP40-soluble protein abundance is 1.04 ± 0.041. The figure for UniProt Q92542 and related entries is 0.995 ± 0.029; for RNF214 (UniProt Q8ND24) it is 0.999 ± 0.032; for FAM3C (UniProt Q92520) it is 0.9851 ± 0.0094. The figure for UniProt Q8TAP6 and related entries is 0.987 ± 0.039. With UniProt Q8WU10 and related entries the figure was 0.966 ± 0.055; with RABGGTA (UniProt Q92696), 0.969 ± 0.1. For SPRYD4 (UniProt Q8WW59), the NP40-soluble protein abundance came to 0.991 ± 0.064. As for UniProt Q8TCB7 and related entries, the NP40-soluble protein abundance was found to be 1.006 ± 0.0084.

Consider CADM4 (UniProt Q8NFZ8), for which the NP40-soluble protein abundance was determined as 1.02 ± 0.034. The figure for WDR48 (UniProt Q8TAF3) is 1.01 ± 0.05; for ANKS1A (UniProt Q92625) it is 0.983 ± 0.025; for UniProt Q8TDH9 it is 1.04 ± 0.049. The figure for RAB8B (UniProt Q92930) is 0.981 ± 0.036; for TTL (UniProt Q8NG68) it is 1.05 ± 0.041.
